Reference: patent US9375365B2, “Absorbent article” (UNICHARM CORPORATION, priority 2012, dated 2016)

Assay: Rewetting rate of sanitary napkin with top sheet coated with blood modifying agent
Details: horse EDTA blood 2 x 3 g at 37° C.; agent coated at about 5 g/m^2; 30 g/cm^2 for 1 minute

Compound | Rewetting rate (%)
CCCCC(CC)C(=O)OCC(C)(C)COC(=O)C(CC)CCCC (centres unmarked) [UNISTAR H-208BRS, Neopentylglycol di-2-ethylhexanoate] | 2.0%
CCCCCCCC(=O)OCC(COC(=O)CCCCCCC)OC(=O)CCCCCCC [PANACET 800] | 0.3%
CCCCCCCCCCCC(=O)OCC(O)CO (centres unmarked) [Monomuls 90-L2 lauric acid monoglyceride, lauric acid monoglyceride] | 6.2%
CCCCCCCCOC(=O)CCCCC(=O)OCCCCCCCC [Dioctyl adipate] | 1.7%
CCCCC(CC)C(=O)OCC(COC(=O)C(CC)CCCC)OC(=O)C(CC)CCCC (centres unmarked) [PANACET 800B] | 2.0%
Isopropyl citrate | 12.2%
Caprylic acid diglyceride | 4.2%
CC(C)CCCCCCCCCCCCCCCOC(=O)CC(O)C(=O)OCCCCCCCCCCCCCCCC(C)C (centres unmarked) [Diisostearyl malate] | 5.5%
CCCCOC(=O)CC(CC(=O)OCCCC)(OC(C)=O)C(=O)OCCCC [Tributyl O-acetylcitrate] | 6.2%
CCCCCCCCCCCCCC(=O)OCCCCCCCCCCCC [ELECTOL WE40, Ester of tetradecanoic acid (C14) and dodecyl alcohol (C12)] | 1.8%
CCCCCCCCCCCCOC(=O)CCCCCCCCCCC [ELECTOL WE20, Ester of dodecanoic acid (C12) and dodecyl alcohol (C12)] | 1.8%
